The source of these data is patent US20210269482A1.

The chains behind the UniProt entries cited, without tags or fusion partners. Residues count along the entry.
UniProt P35222: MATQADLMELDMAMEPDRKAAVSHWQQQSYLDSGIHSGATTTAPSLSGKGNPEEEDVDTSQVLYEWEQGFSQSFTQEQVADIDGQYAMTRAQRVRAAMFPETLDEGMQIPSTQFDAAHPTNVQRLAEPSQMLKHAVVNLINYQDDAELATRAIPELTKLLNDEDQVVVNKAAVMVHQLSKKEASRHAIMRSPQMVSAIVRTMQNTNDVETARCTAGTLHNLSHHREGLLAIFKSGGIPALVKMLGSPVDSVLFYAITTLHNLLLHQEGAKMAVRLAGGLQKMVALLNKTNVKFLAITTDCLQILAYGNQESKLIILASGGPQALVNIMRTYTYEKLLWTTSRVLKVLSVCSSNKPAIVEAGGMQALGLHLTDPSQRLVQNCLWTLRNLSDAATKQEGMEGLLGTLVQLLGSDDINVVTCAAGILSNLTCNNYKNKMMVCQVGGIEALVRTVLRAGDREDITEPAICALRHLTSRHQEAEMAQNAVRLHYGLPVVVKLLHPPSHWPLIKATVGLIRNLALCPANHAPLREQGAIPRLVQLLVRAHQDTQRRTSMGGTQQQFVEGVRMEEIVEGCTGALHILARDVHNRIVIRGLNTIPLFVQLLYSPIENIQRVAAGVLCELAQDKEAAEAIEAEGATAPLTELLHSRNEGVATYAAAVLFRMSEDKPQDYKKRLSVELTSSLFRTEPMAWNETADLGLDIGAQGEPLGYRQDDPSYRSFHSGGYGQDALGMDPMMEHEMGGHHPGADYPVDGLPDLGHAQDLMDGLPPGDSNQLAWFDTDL
UniProt P12830, residues 731-882: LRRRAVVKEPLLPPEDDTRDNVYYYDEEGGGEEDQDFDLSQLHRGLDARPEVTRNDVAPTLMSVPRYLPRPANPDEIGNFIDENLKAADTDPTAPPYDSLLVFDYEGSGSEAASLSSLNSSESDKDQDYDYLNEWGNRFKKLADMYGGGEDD

These are yes or no findings as the source states them, for the method shown. Some entries that bind do so weakly or less than the wild type.

This assay addresses β-catenin as used in the two-hybrid like assay (UniProt P35222). The experiment in a line: two-hybrid like assay.

With “E-cadherin (from UniProt P12830 731-882)”, the binding entry is on record as “binds”.
